Data as given in PubChem BioAssay AID686943 (Drosophila RNAi Screening Center, 2013)

Test: 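Knockdowns that increase or decrease active ERK after insulin receptor stimulation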 (primary screen)
System: Drosophila S2R+ haemocyte-like cells expressing YFP-tagged ERK (Rolled)
Reagents: long dsRNA against Drosophila genes
Challenge: insulin stimulation versus unstimulated cells; dose and duration not given
Detection: 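Per-plate z-scores of phospho-ERK immunostaining normalised to YFP-tagged ERK, measured with and without insulin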
Scale: replicate 1, z-score of dpERK with insulin and replicate 2, z-score of dpERK with insulin: higher = more active ERK per ERK-YFP after insulin; replicate 1, z-score of dpERK under basal conditions: higher = more basal active ERK per ERK-YFP; replicate 1, z-score of ERK-YFP with insulin: higher = more YFP-tagged ERK signal
The deposit covers about 23,000 reagents; shown is an unselected part of those with a known target gene and a result. 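Extra replicates exist only for a retested subset of genes; insulin dose and duration not given; both raised and lowered dpERK matter.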 The numbers tell different reagents against one gene apart. No sequences are given here. The record does not give: the amount of reagent, the time to read-out.

The opening 3 entries, to show the layout:
| gene | dsRNA no. | replicate 1, z-score of dpERK with insulin | replicate 2, z-score of dpERK with insulin | replicate 1, z-score of dpERK under basal conditions | replicate 1, z-score of ERK-YFP with insulin |
| --- | --- | --- | --- | --- | --- |
| ATPsynCF6L | 1 | 0.72 | 0.51 | 2.87 | -0.85 |
| CG1773 | 1 | 0.12 | -0.3 | 0.5 | 0.01 |
| CG30089 | 1 | -0.77 | 0.55 | 0.08 | 0.25 |

Results, repeating the preview:
| gene | dsRNA no. | replicate 1, z-score of dpERK with insulin | replicate 2, z-score of dpERK with insulin | replicate 1, z-score of dpERK under basal conditions | replicate 1, z-score of ERK-YFP with insulin |
| --- | --- | --- | --- | --- | --- |
| ATPsynCF6L | 1 | 0.72 | 0.51 | 2.87 | -0.85 |
| CG1773 | 1 | 0.12 | -0.3 | 0.5 | 0.01 |
| CG30089 | 1 | -0.77 | 0.55 | 0.08 | 0.25 |
| CG30089 | 2 | -9.1 | -5.7 | -3.1 | -1.45 |
| CG30089 | 3 | 0.93 | 0.33 | 1.19 | -0.21 |
| CG30089 | 4 | -0.7 | 0.02 | -0.68 | 1.6 |
| CG30089 | 5 | 0.11 | -0.12 | -1.07 | 0.82 |
| Dup99B | 1 | 0.3 | 0.83 | -1.36 | 0.11 |
| CG15279 | 1 | 0.02 | 0.51 | 0.31 | 0.32 |
| Irbp | 1 | 0.85 | 0.28 | 0.55 | -0.47 |
| CrzR | 1 | 0.5 | 0.13 | 0.12 | 0.43 |
| CrzR | 2 | -0.13 | -0.81 | 0.33 | 0.3 |
| CG5062 | 1 | 0.87 | 0.47 | 1.05 | -0.29 |
| Ufsp2 | 1 | -0.22 | 0.43 | 0.75 | 0.36 |
| CG12768 | 1 | -1.47 | -0.67 | 0.64 | 1.13 |
| CG30378 | 1 | -0.57 | -0.25 | 0.31 | 0.46 |
| CG14323 | 1 | -0.24 | 0.08 | -0.48 | 0.17 |
| Alr | 1 | 1.09 | 1.68 | -0.62 | 1.09 |
| ea | 1 | 0.47 | -1.62 | -0.2 | 0.19 |
| CG3770 | 1 | -0.09 | -0.6 | 0.78 | -0.77 |
| CG32588 | 1 | 0.18 | 0.1 | -0.84 | -0.01 |
| Col4a1 | 1 | 0.3 | 0.33 | 0.2 | 1.03 |
| CG17190 | 1 | -0.01 | 0 | -0.54 | 0.06 |
| Pxd | 1 | 0.19 | 0.76 | 0.76 | 0.23 |
| Git | 1 | -0.38 | -0.08 | -0.9 | -0.52 |
| CG5056 | 1 | 0.51 | -0.11 | 0.64 | -0.06 |
| Rab40 | 1 | 0.51 | 1.99 | 4.41 | 0.48 |
| pigs | 1 | -0.09 | 0.08 | -0.51 | 0.29 |
| pigs | 2 | 0.3 | 0.13 | 0.8 | -0.17 |
| pigs | 3 | -0.22 | 0.05 | -0.2 | -0.06 |
| CG3734 | 1 | 0.16 | -0.93 | 0.67 | -0.18 |
| AlkB | 1 | 0.46 | -0.08 | 0.73 | 0.03 |
| CG30050 | 1 | 0.44 | -0.16 | 0.25 | 0.06 |
| dl | 1 | -0.36 | 0.4 | 0.28 | 1.08 |
| dl | 2 | -0.62 | 0.6 | -0.24 | 0.39 |
| CG11597 | 1 | 0.07 | -0.97 | 0.72 | -0.48 |
| CG6357 | 1 | 0.15 | 0.42 | 0.01 | -0.13 |
| CG14893 | 1 | 0.04 | -0.49 | 1.2 | 0.09 |
| CG10877 | 1 | -0.17 | 0.51 | 0.37 | 0.46 |
| CG15480 | 1 | 0.47 | -0.12 | 0.42 | -0.35 |
| dmpd | 1 | -0.57 | 0 | 0.14 | 0.03 |
| CG5849 | 1 | 0.76 | -0.13 | 0.61 | -0.45 |
| Rbcn-3B | 1 | -0.29 | 0.37 | 0.04 | 0.73 |
| COX5B | 1 | -0.34 | 0.24 | -0.33 | 1.1 |
| Moca-cyp | 1 | 1.59 | 0.54 | 0.01 | -0.22 |
| CG32040 | 1 | 0.24 | 0.58 | 0.9 | -0.07 |
| CG32040 | 2 | -0.29 | 0.52 | 0.04 | 0.45 |
| CG32228 | 1 | 0.08 | 0.58 | -1.09 | 0.74 |
| CG13016 | 1 | -0.67 | -0.53 | 2.55 | 0.28 |
| CG13048 | 1 | 0.05 | 0.25 | -0.03 | -0.68 |
| l(2)k01209 | 1 | -0.21 | 0.26 | 1.54 | -0.04 |
| mgr | 1 | -0.32 | -0.04 | -1.42 | 0.72 |
| CG33958 | 1 | -0.09 | -0.03 | 0.03 | 0.28 |
| CG33958 | 2 | 0.04 | 0.86 | -0.75 | 0.2 |
| fzy | 1 | -5.36 | -2.58 | -1.2 | -10.5 |
| EMC5 | 1 | 0.41 | 0.73 | 0.18 | 0.04 |
| l(2)k10201 | 1 | 0.59 | 0.28 | 0.25 | -0.18 |
| l(2)k10201 | 2 | 1 | 0.52 | -0.48 | 0.26 |
